Values joined by “and” are separate entries in the source; they are usually repeats but may differ in a detail not shown here. Identical values can stand only once. The list shows a part of the results. For some of these results: The source does not settle which construct or isoform was used.
Assays:
Experiment in all cases: protein microarray (ProtoArray v5.0), streptavidin-Alexa Fluor 647
Conditions in all cases: 3'-biotin; 20 mM Tris (pH 7.5), 5 mM MgCl2, 100 mM KCl, 0.1% Tween-20, A/T-rich and random oligonucleotide blockers; temperature not stated; high values mean tight binding
[1] = tested on: CCDC5 (human)
[2] = tested on: CCDC82 (human)
[3] = tested on: CCDC83 (human)
[4] = tested on: CCL3 (human)
[5] = tested on: CCL3L3 (human)
[6] = biological target: T1, CCNF (UniProt P41002)
T1 sequence: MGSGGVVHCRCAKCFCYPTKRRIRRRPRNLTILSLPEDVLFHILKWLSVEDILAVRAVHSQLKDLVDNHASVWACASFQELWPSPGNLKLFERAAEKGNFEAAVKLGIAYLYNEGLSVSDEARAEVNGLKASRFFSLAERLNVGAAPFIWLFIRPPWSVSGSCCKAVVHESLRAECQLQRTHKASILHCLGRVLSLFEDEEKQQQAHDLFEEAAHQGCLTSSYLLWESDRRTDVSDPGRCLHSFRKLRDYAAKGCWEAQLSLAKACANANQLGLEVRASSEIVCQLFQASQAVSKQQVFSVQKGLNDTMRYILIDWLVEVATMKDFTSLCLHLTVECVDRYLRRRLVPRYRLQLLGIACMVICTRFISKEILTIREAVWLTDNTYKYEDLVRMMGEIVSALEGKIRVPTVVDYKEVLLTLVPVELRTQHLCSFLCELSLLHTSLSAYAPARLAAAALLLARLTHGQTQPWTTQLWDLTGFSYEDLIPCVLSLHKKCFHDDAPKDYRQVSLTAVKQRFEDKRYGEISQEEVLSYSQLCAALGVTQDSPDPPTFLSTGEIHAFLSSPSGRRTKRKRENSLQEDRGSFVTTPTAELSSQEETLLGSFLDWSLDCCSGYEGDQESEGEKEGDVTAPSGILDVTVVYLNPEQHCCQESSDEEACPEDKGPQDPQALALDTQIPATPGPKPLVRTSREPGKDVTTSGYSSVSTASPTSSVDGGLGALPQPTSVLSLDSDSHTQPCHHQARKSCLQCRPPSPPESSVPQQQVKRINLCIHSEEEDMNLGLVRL

[7] = tested on: CCNH (human)
[8] = tested on: CCT2 (human)
[9] = tested on: CCT8 (human)
[10] = biological target: T2, CD209 (UniProt Q9NNX6)
T2 sequence: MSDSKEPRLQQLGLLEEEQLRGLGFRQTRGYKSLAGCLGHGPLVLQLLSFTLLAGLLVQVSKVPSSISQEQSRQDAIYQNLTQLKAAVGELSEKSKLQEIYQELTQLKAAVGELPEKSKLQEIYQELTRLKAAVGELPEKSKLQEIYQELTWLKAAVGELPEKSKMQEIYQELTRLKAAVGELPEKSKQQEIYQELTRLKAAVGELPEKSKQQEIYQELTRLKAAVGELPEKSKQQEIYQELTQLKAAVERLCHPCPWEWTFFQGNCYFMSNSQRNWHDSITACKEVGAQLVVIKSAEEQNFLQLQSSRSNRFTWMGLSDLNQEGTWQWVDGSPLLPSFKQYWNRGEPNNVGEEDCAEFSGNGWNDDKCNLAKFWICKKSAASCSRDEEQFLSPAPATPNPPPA

## GGTGACAGGGGTATGGGGAGGGG [G4-2 biotinylated (Ct1)]
[1]
  binding signal: -0.378 z-score
[2]
  binding signal: -0.388 z-score
[3]
  binding signal: -0.369 z-score
[4]
  binding signal: -0.375 z-score
[5]
  binding signal: -0.371 z-score
[6]
  binding signal: -0.379 z-score
[7]
  binding signal: -0.389 z-score
[8]
  binding signal: -0.373 z-score
[9]
  binding signal: -0.394 z-score and -0.392 z-score
[10]
  binding signal: -0.378 z-score

— article PMC5996148
